Values of other authors as cited in patent US11471437B2, “Compositions and methods for treating cannabinoid hyperemesis syndrome with a cannabinoid receptor antagonist” (Opiant Pharmaceuticals, Inc., priority 2019, dated 2022).
Some results were stated once for a whole list of compounds, not compound by compound.

Conditions: oral administration; cited from earlier work

## CS(=O)(=O)N(c1cc(F)cc(F)c1)C1CN(C(c2ccc(Cl)cc2)c2ccc(Cl)cc2)C1 (racemic) [drinabant, (±)-N-{1-[bis(4-chlorophenyl)methyl]-3-azetidinyl}-N-(3,5-difluorophenyl)methanesulfonamide]
  Time to maximum plasma concentrations: 2 to 3 h

## CCc1c(C(=O)NN2CCCCC2)nn(-c2ccc(Cl)cc2Cl)c1-c1ccc(Br)cc1 [surinabant]
  Time to maximum plasma concentrations: 2 to 3 h
